Data from PMC4279409.
These are yes or no findings as the source states them, for the method shown. Binding seen in cells or lysates may run through a third protein. Some entries that bind do so weakly or less than the wild type.

Target: T1, Chromobox homolog 8 (CBX8) (human (endogenous in CRC cells)) (UniProt Q9HC52)
T1 sequence: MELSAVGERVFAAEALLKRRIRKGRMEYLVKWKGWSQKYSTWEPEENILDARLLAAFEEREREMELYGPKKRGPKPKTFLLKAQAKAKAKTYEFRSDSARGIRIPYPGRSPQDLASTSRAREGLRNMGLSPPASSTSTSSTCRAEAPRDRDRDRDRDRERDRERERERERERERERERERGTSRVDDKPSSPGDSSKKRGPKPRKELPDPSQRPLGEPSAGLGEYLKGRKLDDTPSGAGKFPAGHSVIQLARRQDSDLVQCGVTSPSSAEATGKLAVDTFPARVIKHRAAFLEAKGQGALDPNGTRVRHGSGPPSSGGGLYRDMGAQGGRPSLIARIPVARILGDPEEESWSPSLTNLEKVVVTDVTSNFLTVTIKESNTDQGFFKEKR
Test: co-IP; endogenous proteins; clarified CRC cell lysate in MCLB (50 mM Tris-HCl pH 8.0, 100 mM NaCl, 0.5 % Nonidet P-40, 5 mM EDTA, 2 mM DTT) incubated with anti-CBX8 antibody (Bethyl) 2 h at 4°C, then protein A/G-agarose; five washes; western blotting

- binding: binds
Substance: p53 (from UniProt P04637 1-393)
